Earlier results, collected in US20030031715A1, “Pharmaceutical applications of hydrotropic agents, polymers thereof, and hydrogels thereof” (priority 2000, published 2003).

Conditions: log (CO/CW), octanol and water; cited from earlier work

C(=C\c1ccccc1)/CN1CCN(C(c2ccccc2)c2ccccc2)CC1 [Cinnarizine]
Partition Coefficient: 4.50
